These are yes or no findings as the source states them, for the method shown. A result given as binding can be weak or reduced; the word gives no strength. For some assays here: Binding seen in cells or lysates may run through a third protein.
How the values were obtained:
[1] = target: PAS/LOV protein (PLP) fused to the tetracycline repressor (TetR) (Solanum lycopersicum (tomato)); assay: two-hybrid
[2] = target: PAS/LOV protein (PLP), BiFC fusion (Solanum lycopersicum (tomato)); assay: split reporter

binding [1] | binding [2] | Substance
binds | – | GDP-L-galactose phosphorylase 2 (GGP2) coupled to the VP16 transactivation domain (from UniProt A0A3Q7FCT3) (enzyme)
– | binds | GDP-L-galactose phosphorylase 1 (GGP1), BiFC fusion (from UniProt A0A3Q7H2M3) (enzyme)

From publication doi:10.1101/2022.12.12.520143
